Patent US7438933B2, “Maternal multi-nutrient against diabetes-related birth defects” (The Board of Trustees of the University of Arkansas System, priority 2004, dated 2008)

Tested on: embryos of diabetic rats
Assay: Dietary supplementation of pregnant STZ-diabetic and non-diabetic rats; neural tube defects in E12 embryos
Assay type: in vivo, rat
Details: supplemented diet
Method: To induce diabetes, 8-week-old Sprague-Dawley female rats are injected with 65 mg/kg of streptozotocin via the tail vein. Blood glucose levels are monitored daily (by tail vein puncture using a lancet) using a Prestige Smart blood glucose meter (Home Diagnostics, Fort Lauderdale, Fla.). Once a level of hyperglycemia indicative of diabetes (>250 mg/dl) is achieved, a sustained-release insulin pellet (Linplant, Linshin, Canada) will be inserted subcutaneously.
When glucose levels are restored to normal (80-150 mg/dl) and are stable for at least three continuous days, matings can be set up with male rats of the same strain. Day zero of pregnancy is established by identifying spermatozoa in vaginal smears. At designated developmental stages, insulin pellets are withdrawn to generate hyperglycemia in the pregnant rats. A group of control rats will continuously receive insulin during the course of the experiment. Glucose levels and maternal weight are continuously monitored during the pregnancy. Since it has already been shown that there is no difference in embryonic development between streptozotocin/insulin-treated and non-streptozotocin-treated animals, the streptozotocin/insulin-treated groups are used as an equivalent of non-diabetic control. At the end of the experiment, rats are euthanized and embryos dissected out of the uterus for examination and analysis. At least four pregnant rats are included in each group, from which 40-60 embryos can be obtained for examination. For each type of study, at least three replicate experiments will be carried out.
To investigate the effects of maternal hyperglycemia on embryonic malformations, the investigators employed a rat model that induces diabetes by streptozotocin (STZ). Subcutaneously implanted insulin pellets maintained euglycemia at the time of mating. On day 4 of pregnancy, the insulin pellets were removed, and the developing embryos were exposed to hyperglycemia during organogenesis (days 9-12). To maintain a euglycemic control, insulin pellets were retained in the body during the entire experimental course. On day 12, both sets of rats were euthanized, embryos were dissected out of the uteri for examination, and each embryo's yolk sac was collected for biochemical and molecular analyses.
After removal from the dams, embryos were examined under a dissecting microscope and assessed for morphological malformations in a number of categories to determine the effects of maternal hyperglycemia. […]
At E12, embryos were dissected out of uteri and evaluated for neural tube defects (NTDs), which were used as a measure of malformation rates.

Row | SMILES | Glucose level (mg/dl) ± SD (diabetic rats) [mg/dL] | Glucose level (mg/dl) ± SD (non-diabetic rats) [mg/dL]
1 | CCCCC/C=C\C/C=C\C/C=C\C/C=C\CCCC(=O)O [arachidonic acid] | 351 ± 48 | 144 ± 24
2 | Cc1c(C)c2c(c(C)c1O)CC[C@@](C)(CCC[C@H](C)CCC[C@H](C)CCCC(C)C)O2 [vitamin E, α-tocopherol] | 348 ± 59 | 89.2 ± 14
